Cleaved PARP in drug-treated melanoma cells

All values are for the listed drug together with OSU-03012 (5 µM): NCC(=O)Nc1ccc(-n2nc(C(F)(F)F)cc2-c2ccc3c(ccc4ccccc43)c2)cc1

Compounds and concentrations:
PF-04217903, 5 µM: OCCn1cc(-c2cnc3nnn(Cc4ccc5ncccc5c4)c3n2)cn1
etoposide, 0.1 µM: COc1cc([C@@H]2c3cc4c(cc3[C@@H](O[C@@H]3O[C@@H]5CO[C@@H](C)O[C@H]5[C@H](O)[C@H]3O)[C@H]3COC(=O)[C@H]23)OCO4)cc(OC)c1O
vismodegib, 5 µM: CS(=O)(=O)c1ccc(C(=O)Nc2ccc(Cl)c(-c3ccccn3)c2)c(Cl)c1
CP-690550, 5 µM: C[C@@H]1CCN(C(=O)CC#N)C[C@@H]1N(C)c1ncnc2[nH]ccc12
ruxolitinib, 5 µM: N#CC[C@H](C1CCCC1)n1cc(-c2ncnc3[nH]ccc23)cn1
tozasertib, 0.03 µM: Cc1cc(Nc2cc(N3CCN(C)CC3)nc(Sc3ccc(NC(=O)C4CC4)cc3)n2)n[nH]1
U73122, 2 µM: COc1ccc2c(c1)CCC1C2CCC2(C)C(NCCCCCCN3C(=O)C=CC3=O)CCC12 (stereo not shown)

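Human melanoma cell lines in 1,536-well plates were treated with two drugs together for 72 h, then fixed, stained and imaged. Values are the share of nuclei positive for cleaved PARP as a percentage of the same share in the DMSO control: 100 is the control level, higher means more apoptosis. Every drug was used at one fixed concentration, the higher of two screened. No replicate spread is given; individual values may be noisy. The marker varies much from line to line, for technical or biological reasons.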
An unselected part of the screen is shown.
A dash means that no value is listed here.

Cell line	etoposide	ruxolitinib	CP-690550	tozasertib	U73122	vismodegib	PF-04217903
G-361	174	265	170	262	227	234	96.5
WM115	105	110	29.2	209	70.4	154	46.9
MeWo	80.8	246	63.3	116	25.1	144	64.1
IPC-298	138	202	108	75.2	163	82.6	118
COLO 829	217	150	176	102	78.4	190	108
UACC-62	134	174	133	118	197	93.4	174
C32	185	49.2	52.4	76.2	120	74.3	179
SK-MEL-28	573	1110	1390	413	1410	311	561
RVH-421	59.1	77.1	53.8	84.6	73.5	105	142
SK-MEL-30	313	982	257	321	1100	391	420
SK-MEL-2	365	400	519	474	556	694	672
UACC-257	146	74.1	76.3	127	105	191	91.0
WM3619	124	204	609	108	146	164	376
COLO 800	185	61.9	73.3	205	148	148	157
WM451Lu	94.1	51.3	77.1	112	167	98.2	65.3
SK-MEL-5	210	134	210	220	337	226	364
WM3526	287	289	269	556	523	394	454
IST-MEL1	215	30.9	34.7	50.3	115	362	122
MEL-HO	174	131	78.9	109	26.1	88.3	80.3
A2058	170	97.0	39.4	201	151	82.3	63.2
COLO 792	136	238	90.3	150	272	253	126
A375	-	-	-	-	393	-	-
501mel	-	-	-	-	2990	-	-
LB2518-MEL	62.1	561	44.9	118	382	153	126
WM1745	94.9	245	340	121	140	72.7	91.1
LOX IMVI	126	153	178	77.9	65.4	141	88.2
WM1716	140	237	9.1	192	33.7	97.8	60.0
MZ2-MEL	260	170	180	104	219	52.9	172
RPMI-7951	31.6	132	50.2	58.2	99.5	50.7	211
A101D	106	90.7	55.2	108	94.5	357	51.8

For reference, 2 entries once more:

| Cell line | etoposide | ruxolitinib | CP-690550 | tozasertib | U73122 | vismodegib | PF-04217903 |
|---|---|---|---|---|---|---|---|
| SK-MEL-5 | 210 | 134 | 210 | 220 | 337 | 226 | 364 |
| WM3619 | 124 | 204 | 609 | 108 | 146 | 164 | 376 |

Data from the primary screen of doi:10.1371/journal.pone.0140310, rounded.